# In patent US9527830B2 (Merck Sharp & Dohme Corp., priority 2011, dated 2016):
# Some results were stated once for a whole list of compounds, not compound by compound.
# Molecular target: T1, hROMK1 (Kir1.1) (Homo sapiens, UniProt P48048)
# T1 construct: expressed in transfected cells
# T1 sequence (P48048 1-391): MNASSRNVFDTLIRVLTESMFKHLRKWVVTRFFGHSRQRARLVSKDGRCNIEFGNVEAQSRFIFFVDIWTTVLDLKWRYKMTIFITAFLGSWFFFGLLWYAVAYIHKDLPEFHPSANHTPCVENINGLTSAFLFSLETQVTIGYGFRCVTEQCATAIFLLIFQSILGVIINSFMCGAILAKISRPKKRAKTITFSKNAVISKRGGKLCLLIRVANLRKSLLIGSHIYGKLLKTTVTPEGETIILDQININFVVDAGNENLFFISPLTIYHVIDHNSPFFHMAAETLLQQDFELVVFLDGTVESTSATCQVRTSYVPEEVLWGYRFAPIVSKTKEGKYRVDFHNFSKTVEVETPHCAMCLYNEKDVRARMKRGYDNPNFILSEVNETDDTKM
# Assay: ^86Rb^+ Efflux Assay
# Format: cell-based
# Settings: CHO-DHFR- cells stably expressing hROMK1; potency ranges
# Method: Several assays may be used to measure functional inhibition of the ROMK channel by compounds of the instant invention. One primary assay that can be used is a functional ^86Rb^+ efflux assay that measures the ability of ROMK to permeate ^86Rb^+, in the absence or presence of test compound. Under control conditions, cells loaded with ^86Rb^+ and incubated in Rb^+-free medium display a time-dependent efflux of the isotope, the rate of which depends on number of functional channels. When cells are incubated in the presence of a channel inhibitor, efflux of ^86Rb^+ is prevented in a concentration-dependent manner, and IC50 values of inhibition by compounds can be accurately determined. This assay has been established with cell lines expressing either human, rat or dog ROMK channels, and can operate in 96- or 384-well format. Importantly, the human, rat, and dog ^86Rb^+ efflux assays can be carried out in the presence of up to 100% serum allowing, therefore, an accurate estimation of the effect of protein binding on the inhibitory activity of compounds of interest. Another ROMK functional assay makes use of the ability of thallium to permeate through open ROMK channels and increase the fluorescence of a dye previously loaded into the cells. Under control conditions, cells loaded with dye and exposed to thallium-containing medium display a time-dependent increase in fluorescence, the rate of which depends on number of functional channels. When cells are incubated in the presence of a channel inhibitor, the increase in fluorescence is attenuated in a concentration-dependent manner, and IC50 values of inhibition by compounds can be accurately determined. This assay has been established with cell lines expressing either human, or rat ROMK channels, and operates in 384-well format. Another assay for evaluation of the compounds of the instant invention and for evaluation of mechanism of action of compounds of Formula I relies on the measurement of the electrical current that is generated as potassium permeates through the channel. For these electrophysiological experiments, three different platforms, IonWorks, QPatch, or manual patch clamp, are used, depending on the experimental protocol under consideration. IonWorks operates in a 384-well format and allows accurate determination of IC50 values for inhibitors.
# CHO-DHFR-cells stably expressing hROMK1 (Kir1.1) were grown at 37° C. in a 10% CO2 humidified incubator in Iscove's Modified Dulbecco's Medium (Gibco 12440) supplemented with HT Supplement, Penicillin/Streptomycin/Glutamine, G418 (500 μg/ml) and 10% FBS. Cells were seeded in Sterile and Tissue Culture Treated Packard CulturPlate White Opaque Microplates at a concentration of 5.0E5-7.0E5 cells/ml—PerkinElmer 6005680 (96-well); Corning 3707 (384 well) in complete media containing 1.5 μCi/ml Rubidium-86. Cells were incubated in 37° C.-10% CO2 incubator overnight. On the day of the experiment, the media was removed and cells washed with low K assay buffer. ^86Rb^+ efflux was initiated after addition of assay buffer±test compound followed by 35 min incubation at room temperature. ROMK-sensitive component of efflux was defined in the presence of 10 mM BaCl2. Assay buffer was removed and transferred to a plate and cells were solubilized in the presence of SDS. Radioactivity associated with assay and cell plate was determined.
# • 1. Removed cell media and washed cells with low K assay buffer (126.9 mM NaCl, 4.6 mM KCl, 2 mM CaCl2, 1 mM MgCl2, 10 mM Hepes/NaOH; pH 7.4) • 200 μl for 96-well plate; 70 μl for 384-well plate • 2. Added assay buffer (121.5 mM NaCl, 10 mM KCl, 2 mM CaCl2, 1 mM MgCl2, 10 mM Hepes/NaOH; pH 7.4)±test compound to cells • 100 μl for 96-well plate; 50 μl for 384-well plate • 3. Incubated at ambient temperature (22-24° C.) for 35 min • 4.
row,Structure (SMILES),IC50
1,"O=C(Cc1ccc(-n2cnnn2)cc1)N1CCC(CCc2ccc([N+](=O)[O-])cc2)CC1 [Example 4, 2-(4-(1H-Tetrazol-1-yl)phenyl)-1-(4-(4-nitrophenethyl)piperidin-1-yl)ethanone]",≤ 1.1 µM
2,O=C(Cc1ccc(-n2cnnn2)cc1)N1CCC(/C=C/c2ccc3nonc3c2)CC1 [Example 5],≤ 1.1 µM
3,"O=C(Cc1ccc(-n2cnnn2)cc1)N1CCC(O)(CCc2ccc3nonc3c2)CC1 [Example 8, 1-{4-[2-(2,1,3-Benzoxadiazol-5-yl)ethyl]-4-hydroxypiperidin-1-yl}-2-[4-(1H-tetrazol-1-yl)phenyl]ethanone]",≤ 1.1 µM
4,"N#Cc1cc(C#CC2(O)CCN(C(=O)Cc3ccc(-n4cnnn4)cc3)CC2)ccc1F [Example 10, 2-Fluoro-5-[(4-hydroxy-1-{[4-(1H-tetrazol-1-yl)phenyl]acetyl}piperidin-4-yl)ethynyl]benzonitrile]",≤ 1.1 µM
5,"O=C(Cc1ccc(-n2cnnn2)cc1)N1CCC(Sc2ccc([N+](=O)[O-])cc2)CC1 [Example 12, 1-{4-[(4-Nitrophenyl)sulfanyl]piperidin-1-yl}-2-[4-(1H-tetrazol-1-yl)phenyl]ethanone]",≤ 1.1 µM
6,"N#Cc1cc(CCC2(O)CCN(C(=O)Cc3ccc(-n4cnnn4)cc3)CC2)ccc1F [Example 13, 2-Fluoro-5-[2-(4-hydroxy-1-{[4-(1H-tetrazol-1-yl)phenyl]acetyl}piperidin-4-yl)ethyl]benzonitrile]",≤ 1.1 µM
7,"N#Cc1cc(CCC2(F)CCN(C(=O)Cc3ccc(-n4cnnn4)cc3)CC2)ccc1F [Example 14, 2-Fluoro-5-[2-(4-fluoro-1-{[4-(1H-tetrazol-1-yl)phenyl]acetyl}piperidin-4-yl)ethyl]benzonitrile]",≤ 1.1 µM
8,"CCOC(=O)C1(CCc2ccc(F)c(C#N)c2)CCN(C(=O)Cc2ccc(-n3cnnn3)cc2)CC1 [Example 15, Ethyl 4-[2-(3-cyano-4-fluorophenyl)ethyl]-1-{[4-(1H-tetrazol-1-yl)phenyl]acetyl}piperidine-4-carboxylate]",≤ 1.1 µM
9,"CC(=O)OC1(CCc2ccc(F)c(C#N)c2)CCN(C(=O)Cc2ccc(-n3cnnn3)cc2)CC1 [Example 16, 4-[2-(3-Cyano-4-fluorophenyl)ethyl]-1-{[4-(1H-tetrazol-1-yl)phenyl]acetyl}piperidin-4-yl acetate]",≤ 1.1 µM
10,"N#Cc1cc(CCC2=CCN(C(=O)Cc3ccc(-n4cnnn4)cc3)CC2)ccc1F [Example 17, 2-Fluoro-5-[2-(1-{[4-(1H-tetrazol-1-yl)phenyl]acetyl}-1,2,3,6-tetrahydropyridin-4-yl)ethyl]benzonitrile]",≤ 1.1 µM
11,"Cc1cc(-n2cnnn2)ccc1CC(=O)N1CCC(O)(CCc2ccc(F)c(C#N)c2)CC1 [Example 18, 2-Fluoro-5-[2-(4-hydroxy-1-{[2-methyl-4-(1H-tetrazol-1-yl)phenyl]acetyl}piperidin-4-yl)ethyl]benzonitrile]",≤ 1.1 µM
12,"N#Cc1cc(CCC2(O)CCN(C(=O)Cc3ccc([N+](=O)[O-])cc3)CC2)ccc1F [Example 19, 2-Fluoro-5-(2-{4-hydroxy-1-[(4-nitrophenyl)acetyl]piperidin-4-yl}ethyl)benzonitrile]",≤ 1.1 µM
13,"N#Cc1cc(CCC2(O)CCN(C(=O)C3CCc4cc(-n5cnnn5)ccc43)CC2)ccc1F (centres unmarked) [Example 20, 2-Fluoro-5-[2-(4-hydroxy-1-{[5-(1H-tetrazol-1-yl)-2,3-dihydro-1H-inden-1-yl]carbonyl}piperidin-4-yl)ethyl]benzonitrile]",≤ 1.1 µM
14,"COc1ccc(C#CC2(O)CCN(C(=O)Cc3ccc(-n4cnnn4)cc3)CC2)cc1C#N [Example 21, 5-[(4-Hydroxy-1-{[4-(1H-tetrazol-1-yl)phenyl]acetyl}piperidin-4-yl)ethynyl]-2-methoxybenzonitrile]",≤ 1.1 µM
15,"N#Cc1cccc(CCC2(O)CCN(C(=O)Cc3ccc(-n4cnnn4)cc3)CC2)c1 [Example 22, 3-[2-(4-Hydroxy-1-{[4-(1H-tetrazol-1-yl)phenyl]acetyl}piperidin-4-yl)ethyl]benzonitrile]",≤ 1.1 µM
16,"N#Cc1cccc(CCC2(F)CCN(C(=O)Cc3ccc(-n4cnnn4)cc3)CC2)c1 [Example 23, 3-[2-(4-Fluoro-1-{[4-(1H-tetrazol-1-yl)phenyl]acetyl}piperidin-4-yl)ethyl]benzonitrile]",≤ 1.1 µM
17,"Cc1ccc(C#N)cc1C#CC1(O)CCN(C(=O)Cc2ccc(-n3cnnn3)cc2)CC1 [Example 24, 3-[(4-Hydroxy-1-{[4-(1H-tetrazol-1-yl)phenyl]acetyl}piperidin-4-yl)ethynyl]-4-methylbenzonitrile]",≤ 1.1 µM
18,"N#Cc1cc(CCC2(O)CCN(C(=O)Cc3ccc(C#N)c(Cl)c3)CC2)ccc1F [Example 25, 2-Chloro-4-(2-{4-[2-(3-cyano-4-fluorophenyl)ethyl]-4-hydroxypiperidin-1-yl}-2-oxoethyl)benzonitrile]",≤ 1.1 µM
19,"N#Cc1cc(CCC2(CO)CCN(C(=O)Cc3ccc(-n4cnnn4)cc3)CC2)ccc1F [Example 26, 2-Fluoro-5-{2-[4-(hydroxymethyl)-1-{[4-(1H-tetrazol-1-yl)phenyl]acetyl}piperidin-4-yl]ethyl}benzonitrile]",≤ 1.1 µM
20,"N#Cc1cc(CCC2(C(F)F)CCN(C(=O)Cc3ccc(-n4cnnn4)cc3)CC2)ccc1F [Example 27, 5-{2-[4-(Difluoromethyl)-1-{[4-(1H-tetrazol-1-yl)phenyl]acetyl}piperidin-4-yl]ethyl}-2-fluorobenzonitrile]",≤ 1.1 µM
21,"O=C1OCc2cc(CCC3C4CN(C(=O)Cc5ccc(-n6cnnn6)cc5)CC34)ccc21 (centres unmarked) [Example 28, 5-[2-(3-{[4-(1H-Tetrazol-1-yl)phenyl]acetyl}-3-azabicyclo[3.1.0]hex-6-yl)ethyl]-2-benzofuran-1(3H)-one]",≤ 1.1 µM
22,"N#Cc1cc(/C=C/C2(O)CCN(C(=O)Cc3ccc(-n4cnnn4)cc3)CC2)ccc1F [Example 29, 2-Fluoro-5-[(E)-2-(4-hydroxy-1-{[4-(1H-tetrazol-1-yl)phenyl]acetyl}piperidin-4-yl)ethenyl]benzonitrile]",≤ 1.1 µM
23,"N#Cc1cc(CCC2(O)CCN(CCc3ccc4c(c3)COC4=O)CC2)ccc1F [Example 30, 2-Fluoro-5-(2-{4-hydroxy-1-[2-(1-oxo-1,3-dihydro-2-benzofuran-5-yl)ethyl]piperidin-4-yl}ethyl)benzonitrile]",≤ 1.1 µM
24,"N#Cc1cc(CCC2(O)CCN(C(=O)Cc3ccc(-n4cnnn4)cc3C(F)(F)F)CC2)ccc1F [Example 31, 2-Fluoro-5-[2-(4-hydroxy-1-{[4-(1H-tetrazol-1-yl)-2-(trifluoromethyl)phenyl]acetyl}piperidin-4-yl)ethyl]benzonitrile]",≤ 1.1 µM
25,"N#Cc1cc(C2CC2C2(O)CCN(C(=O)Cc3ccc(-n4cnnn4)cc3)CC2)ccc1F (centres unmarked) [Example 32, 2-Fluoro-5-[2-(4-hydroxy-1-{[4-(1H-tetrazol-1-yl)phenyl]acetyl}piperidin-4-yl)cyclopropyl]benzonitrile]",≤ 1.1 µM
26,"N#Cc1c(F)ccc(C#CC2(O)CCN(C(=O)Cc3ccc(-n4cnnn4)cc3)CC2)c1F [Example 33, 2,6-Difluoro-3-[(4-hydroxy-1-{[4-(1H-tetrazol-1-yl)phenyl]acetyl}piperidin-4-yl)ethynyl]benzonitrile]",≤ 1.1 µM
